Reference: PubChem BioAssay AID1259405 (NCATS, 2018)

Aim: 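Mouse-designed siRNAs used to find CHO productivity engineering targets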 (primary screen)
Cells: Chinese hamster CHO-K1 ovary cells with stable secreted eGFP expression
Reagent: single siRNA against mouse genes, 0.8 pmol siRNA per well (2 µl of 400 nM stock)
Duration: 3 days
Read-out: 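Per-well intracellular GFP measured by laser scanning cytometry, plus viability from ATP luminescence, each relative to plate median of non-targeting control wells, in %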
Direction: GFP, % of control: higher = more GFP per well, higher productivity; viability (ATP), % of control: higher = more viable cells (more ATP)
Active means: 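Called active when intracellular GFP, relative to negative control, is at or above 120%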
This is one part, drawn at random, of about 50,000 reagents. About 4,000 of them (8%) were called active. 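Mouse siRNA library applied to hamster cells; one well for each siRNA.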 The numbers tell different reagents against one gene apart.

| target | siRNA no. | GFP, % of control | viability (ATP), % of control | Call |
| --- | --- | --- | --- | --- |
| Cdip1 (GeneID 66626) | 1 | 76 | 49.2 | inactive |
| Cdip1 (GeneID 66626) | 2 | 80.5 | 76.8 | inactive |
| Cdip1 (GeneID 66626) | 3 | 114 | 103 | inactive |
| Dhx34 (GeneID 71723) | 1 | 62.1 | 64.5 | inactive |
| Dhx34 (GeneID 71723) | 2 | 83.3 | 72.9 | inactive |
| Dhx34 (GeneID 71723) | 3 | 72.5 | 62.9 | inactive |
| Rasal2 (GeneID 226525) | 1 | 46 | 57.2 | inactive |
| Rasal2 (GeneID 226525) | 2 | 51.2 | 66.6 | inactive |
| Rasal2 (GeneID 226525) | 3 | 87.6 | 72.9 | inactive |
| Cntnap1 (GeneID 53321) | 1 | 82.1 | 85.9 | inactive |
| Cntnap1 (GeneID 53321) | 2 | 87.6 | 57.4 | inactive |
| Cntnap1 (GeneID 53321) | 3 | 87.9 | 94.4 | inactive |
| Thoc5 (GeneID 107829) | 1 | 64.9 | 84.3 | inactive |
| Thoc5 (GeneID 107829) | 2 | 79.6 | 96.3 | inactive |
| Thoc5 (GeneID 107829) | 3 | 65.9 | 39.8 | inactive |
| Adamts10 (GeneID 224697) | 1 | 64 | 58.1 | inactive |
| Adamts10 (GeneID 224697) | 2 | 59.1 | 35.9 | inactive |
| Adamts10 (GeneID 224697) | 3 | 113 | 93.1 | inactive |
| Npas3 (GeneID 27386) | 1 | 60.4 | 57.7 | inactive |
| Npas3 (GeneID 27386) | 2 | 88.7 | 103 | inactive |
| Npas3 (GeneID 27386) | 3 | 91.5 | 71.2 | inactive |
| Dync1li1 (GeneID 235661) | 1 | 87.8 | 98.6 | inactive |
| Dync1li1 (GeneID 235661) | 2 | 79.7 | 104 | inactive |
| Zfp663 (GeneID 381405) | 1 | 79.2 | 76.5 | inactive |
| Zfp663 (GeneID 381405) | 2 | 69.5 | 60.9 | inactive |
| Zfp663 (GeneID 381405) | 3 | 71.6 | 76.6 | inactive |
| Frs3 (GeneID 107971) | 1 | 73.4 | 47.2 | inactive |
| Frs3 (GeneID 107971) | 2 | 127 | 83.4 | active |
| Frs3 (GeneID 107971) | 3 | 114 | 85.2 | inactive |
| Apoo (GeneID 68316) | 1 | 116 | 127 | inactive |
| Apoo (GeneID 68316) | 2 | 115 | 85.6 | inactive |
| Apoo (GeneID 68316) | 3 | 66 | 72.4 | inactive |
| Pdrg1 (GeneID 68559) | 1 | 76.8 | 63.3 | inactive |
| Pdrg1 (GeneID 68559) | 2 | 66.8 | 55.2 | inactive |
| Pdrg1 (GeneID 68559) | 3 | 188 | 41.3 | active |
| Gm9732 (GeneID 108168154) | 1 | 74.6 | 75.3 | inactive |
| Gm9732 (GeneID 108168154) | 2 | 84.3 | 88.7 | inactive |
| Gm9732 (GeneID 108168154) | 3 | 65.4 | 84 | inactive |
| Tpte (GeneID 234129) | 1 | 69.3 | 70.4 | inactive |
| Tpte (GeneID 234129) | 2 | 92.6 | 74.5 | inactive |
| Tpte (GeneID 234129) | 3 | 90.8 | 89.8 | inactive |
| C1ql1 (GeneID 23829) | 1 | 20.4 | 34.3 | inactive |
| C1ql1 (GeneID 23829) | 2 | 63.1 | 44.8 | inactive |
| C1ql1 (GeneID 23829) | 3 | 64.2 | 68.9 | inactive |
| Ube2z (GeneID 268470) | 1 | 63.2 | 66.9 | inactive |
| Ube2z (GeneID 268470) | 2 | 54.9 | 52.2 | inactive |
| Ube2z (GeneID 268470) | 3 | 82.1 | 133 | inactive |
| Elavl4 (GeneID 15572) | 1 | 49.7 | 62.5 | inactive |
| Elavl4 (GeneID 15572) | 2 | 59.5 | 29 | inactive |
| Elavl4 (GeneID 15572) | 3 | 55.6 | 48.2 | inactive |
| Rtbdn (GeneID 234542) | 1 | 90.3 | 69.4 | inactive |
| Rtbdn (GeneID 234542) | 2 | 28.9 | 46.3 | inactive |
| Rtbdn (GeneID 234542) | 3 | 42.4 | 70.2 | inactive |
| Zfp609 (GeneID 214812) | 1 | 65.7 | 29.7 | inactive |
| Zfp609 (GeneID 214812) | 2 | 95.7 | 59.3 | inactive |
| Zfp609 (GeneID 214812) | 3 | 69 | 80.8 | inactive |
| Or9g10 (GeneID 258255) | 1 | 83.5 | 83.7 | inactive |
| Or9g10 (GeneID 258255) | 2 | 51.1 | 75.7 | inactive |
| Or9g10 (GeneID 258255) | 3 | 84.3 | 76.2 | inactive |
| Zfp940 (GeneID 233057) | 1 | 80.6 | 90.3 | inactive |
| Zfp940 (GeneID 233057) | 2 | 90 | 65.8 | inactive |
| Zfp940 (GeneID 233057) | 3 | 117 | 85.9 | inactive |
| Or13c7b (GeneID 29846) | 1 | 101 | 82.6 | inactive |
| Or13c7b (GeneID 29846) | 2 | 45.4 | 39.3 | inactive |
| Or13c7b (GeneID 29846) | 3 | 79.4 | 53.8 | inactive |
| Or4g16 (GeneID 258388) | 1 | 88.3 | 69.3 | inactive |
| Or4g16 (GeneID 258388) | 2 | 67.3 | 66.2 | inactive |
| Or4g16 (GeneID 258388) | 3 | 56.7 | 107 | inactive |
| Slc60a1 (GeneID 213006) | 1 | 71.8 | 58.4 | inactive |
| Slc60a1 (GeneID 213006) | 2 | 131 | 52.1 | active |
| Slc60a1 (GeneID 213006) | 3 | 140 | 124 | active |
| Sinhcaf (GeneID 56306) | 1 | 89.6 | 70 | inactive |
| Sinhcaf (GeneID 56306) | 2 | 92.1 | 133 | inactive |
| Sinhcaf (GeneID 56306) | 3 | 114 | 118 | inactive |
| Frem2 (GeneID 242022) | 1 | 83.1 | 71.3 | inactive |
| Frem2 (GeneID 242022) | 2 | 82.8 | 50.2 | inactive |
| Frem2 (GeneID 242022) | 3 | 36.1 | 56 | inactive |
| LOC547349 (GeneID 547349) | 1 | 68 | 101 | inactive |
| LOC547349 (GeneID 547349) | 2 | 67.4 | 74.4 | inactive |
| LOC547349 (GeneID 547349) | 3 | 49.2 | 32.8 | inactive |
| Erp44 (GeneID 76299) | 1 | 70.2 | 81.4 | inactive |
| Erp44 (GeneID 76299) | 2 | 80.2 | 93.5 | inactive |
| Erp44 (GeneID 76299) | 3 | 27.7 | 37.6 | inactive |
| Oaz1 (GeneID 18245) | 1 | 65.2 | 96.4 | inactive |
| Oaz1 (GeneID 18245) | 2 | 42.1 | 59.1 | inactive |

Called active, of those listed so far:
| target | siRNA no. | GFP, % of control | viability (ATP), % of control | Call |
| --- | --- | --- | --- | --- |
| Frs3 (GeneID 107971) | 2 | 127 | 83.4 | active |
| Pdrg1 (GeneID 68559) | 3 | 188 | 41.3 | active |
| Slc60a1 (GeneID 213006) | 2 | 131 | 52.1 | active |
| Slc60a1 (GeneID 213006) | 3 | 140 | 124 | active |
